Results published in patent US12029730B2, “Pharmaceutical composition for preventing or treating cancer, containing N-1H-benzimidazol-2-yl-3-(1H-pyrrole-1-yl)benzamide as active ingredient” (KOREA INSTITUTE OF RADIOLOGICAL & MEDICAL SCIENCES, priority 2018, dated 2024).
Some results were stated once for a whole list of compounds, not compound by compound.

Molecular target: T1, MASTL kinase (Homo sapiens, UniProt Q96GX5)
T1 construct: GST; purchased Thermo Fisher Scientific
T1 sequence (Q96GX5 1-879): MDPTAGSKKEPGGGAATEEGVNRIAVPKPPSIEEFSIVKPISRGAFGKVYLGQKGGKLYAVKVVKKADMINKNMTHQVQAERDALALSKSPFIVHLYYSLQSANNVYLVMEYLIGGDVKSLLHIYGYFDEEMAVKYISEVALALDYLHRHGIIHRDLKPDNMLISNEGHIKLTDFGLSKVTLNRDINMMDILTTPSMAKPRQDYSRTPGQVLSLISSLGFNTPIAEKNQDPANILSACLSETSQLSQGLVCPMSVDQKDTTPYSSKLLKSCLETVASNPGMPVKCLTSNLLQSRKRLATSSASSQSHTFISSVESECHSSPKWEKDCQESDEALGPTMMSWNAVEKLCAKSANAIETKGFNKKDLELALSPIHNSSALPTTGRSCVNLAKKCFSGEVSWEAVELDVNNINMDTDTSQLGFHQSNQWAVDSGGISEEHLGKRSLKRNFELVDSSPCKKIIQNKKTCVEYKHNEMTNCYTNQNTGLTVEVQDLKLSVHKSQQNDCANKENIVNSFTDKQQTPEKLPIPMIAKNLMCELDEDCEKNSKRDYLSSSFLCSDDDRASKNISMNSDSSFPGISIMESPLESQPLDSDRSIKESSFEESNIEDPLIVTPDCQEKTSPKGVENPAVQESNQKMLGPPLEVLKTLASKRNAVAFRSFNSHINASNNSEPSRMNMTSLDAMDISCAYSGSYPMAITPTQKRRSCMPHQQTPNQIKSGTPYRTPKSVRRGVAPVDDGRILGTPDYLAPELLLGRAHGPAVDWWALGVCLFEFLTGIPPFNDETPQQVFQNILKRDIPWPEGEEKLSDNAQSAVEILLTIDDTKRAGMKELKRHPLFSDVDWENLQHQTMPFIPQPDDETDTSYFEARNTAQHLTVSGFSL
Experiment: In vitro MASTL kinase analysis, immunoblotting for phosphorylated ENSA
Assay type: biochemical
Conditions: screen of 42 candidate substances, FIG. 1B
Protocol: The MASTL kinase analysis in vitro was performed by reacting recombinant GST-tagged-MASTL (Thermo Fisher Scientific, Waltham, MA, USA) and his-tagged-ENSA (Sino Biological Inc., Beijing, China) proteins or immunoprecipitated proteins derived from MCF7 cells with the MASTL antibody (AP7147d; Abgent, CA, USA) in a kinase buffer consisting of 100 mM Tris-HCl (pH 7.5), 30 mM MgCl2, 2 mM DTT, 1 mM EDTA and 10 μM ultrapure ATP. The reaction proceeded, and then stopped by treating with SDS-loading buffer. In this experiment, the multi-AGC kinase inhibitor AT13148 was used as a positive control. The reaction was analyzed by performing immunoblotting for phosphorylated ENSA, and the results of the analysis were shown in FIG. 1B, and the results of the experiments confirming the cell survival and the kinase inhibitor activity were shown in FIG. 1C.
A protein kinase analysis was performed using the ADP-Glo™ kinase assay kit according to the standard protocol provided by Promega. […] Then, the reacted product was transferred to a 384-well white plate, and […] was read using a SpectraMax i3× Multi-Mode Microplate Reader (Molecular Devices), and GKI-1, N-(4-chlorophenyl)-3-(1H-pyrazol-4-yl)aniline and AT13148 were used as positive controls. The effect of inhibiting kinase activity of GKI-1 and MKI-1 and its IC50 confirmed through the reading result were shown in FIG. 2. […]

Q: For `O=C(Nc1nc2ccccc2[nH]1)c1cccc(-n2cccc2)c1` [MKI-1, N-1H-benzimidazol-2-yl-3-(1H-pyrrol-1-yl) benzamide], which “MASTL kinase activity after treatment” value is on record?
A: ≤ 50%
